From US20060286035A1 (CYTOS BIOTECHNOLOGY, published 2006)
No constants are given. Whether binding was seen depends on the method and setting. Some results given as binding are weak or reduced against the parent protein; the word gives no strength. Tags and fused reporters may be left off the sequences shown.

Tests used:
[1] = biological target: T1, T-cadherin (mouse, UniProt Q9WTR5 139-693); assay: flow cytometry on transiently transfected 293-EBNA cells, 50 µg/ml bait, anti-FLAG M2 and Cy5 anti-mouse detection
T1 construct: whole, on cells; also called adiponectin receptor; pGF-T-cadherin
T1 sequence (looked up): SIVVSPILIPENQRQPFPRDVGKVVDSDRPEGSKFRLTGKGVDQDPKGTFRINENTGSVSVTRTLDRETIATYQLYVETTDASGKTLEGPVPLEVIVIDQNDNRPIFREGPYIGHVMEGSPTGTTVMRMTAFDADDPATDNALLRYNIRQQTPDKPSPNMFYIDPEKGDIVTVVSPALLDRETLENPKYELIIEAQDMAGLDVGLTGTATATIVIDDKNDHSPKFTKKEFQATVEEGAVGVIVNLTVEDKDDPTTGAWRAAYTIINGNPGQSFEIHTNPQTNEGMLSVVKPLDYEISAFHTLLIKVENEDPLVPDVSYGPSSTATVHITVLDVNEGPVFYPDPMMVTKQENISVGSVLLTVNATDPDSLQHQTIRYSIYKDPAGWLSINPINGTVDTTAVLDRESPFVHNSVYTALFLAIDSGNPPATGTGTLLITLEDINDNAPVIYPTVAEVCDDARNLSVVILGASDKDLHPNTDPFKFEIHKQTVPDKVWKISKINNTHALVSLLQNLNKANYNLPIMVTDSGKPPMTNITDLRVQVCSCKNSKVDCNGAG

[2] = biological target: T1, T-cadherin; assay: FACS expression cloning: BHK cells infected with a C2C12 Sindbis cDNA library, stained with 50 µg/ml Acrp30-FLAG-C; clones identified by RT-PCR and sequencing
[3] = biological target: T1, T-cadherin; assay: flow cytometry on 293-EBNA cells transfected with pGF-T-cadherin (FIG. 1)
[4] = biological target: T1, T-cadherin; assay: flow cytometry titration on 293-EBNA cells transfected with pGF-T-cadherin

Measured: binding

B1: Acrp30-FLAG-C (ligand)
chain: DADPEDDVTTTEELAPALVPPPKGTCAGWMAGIPGHPGHNGTPGRDGRDGTPGEKGEKGDAGLLGPKGETGDVGVTGAEGPRGFPGTPGRKGEPGEAAYMYRSAFSVGLETRVTVPNVPIRFTKIFYNQQNHYDGSTGKFYCNIPGLYYFSYHITVYMKDVKVSLFKKDKAVLFTYDQYQEKNVDQASGSVLLHLEVGDQVWLQVYGDGDHNGLYADNVNDSTFTGFLLYHDTNSLDDYKDDDDK
notes: The molecular weight used for the Kd is 26546 g/mol (monomer); Three bands on SDS-PAGE from differential glycosylation; also called Adiponectin-bait Acrp30-FLAG-C; adiponectin
binds: [1] | [2] | [3] | [4]
